Measured values taken from PMC10907169.
No constants are given. Whether binding was seen depends on the method and setting. Some entries that bind do so weakly or less than the wild type. Tags and fused reporters may be left off the sequences shown.

Key:
[1] = molecular target: T1, Full-length human KIF5A heavy chain (WT), C-terminal FLAG tag (human), Q12840; experiment: negative-stain electron microscopy; KIF5A 2 µM in low salt buffer cross-linked with 1 mM BS3, diluted to 20 nM, 1% uranyl acetate; 2D class averages and a 24 Å 3D map; both purified; conditions: remark: other sources report otherwise
T1 chain: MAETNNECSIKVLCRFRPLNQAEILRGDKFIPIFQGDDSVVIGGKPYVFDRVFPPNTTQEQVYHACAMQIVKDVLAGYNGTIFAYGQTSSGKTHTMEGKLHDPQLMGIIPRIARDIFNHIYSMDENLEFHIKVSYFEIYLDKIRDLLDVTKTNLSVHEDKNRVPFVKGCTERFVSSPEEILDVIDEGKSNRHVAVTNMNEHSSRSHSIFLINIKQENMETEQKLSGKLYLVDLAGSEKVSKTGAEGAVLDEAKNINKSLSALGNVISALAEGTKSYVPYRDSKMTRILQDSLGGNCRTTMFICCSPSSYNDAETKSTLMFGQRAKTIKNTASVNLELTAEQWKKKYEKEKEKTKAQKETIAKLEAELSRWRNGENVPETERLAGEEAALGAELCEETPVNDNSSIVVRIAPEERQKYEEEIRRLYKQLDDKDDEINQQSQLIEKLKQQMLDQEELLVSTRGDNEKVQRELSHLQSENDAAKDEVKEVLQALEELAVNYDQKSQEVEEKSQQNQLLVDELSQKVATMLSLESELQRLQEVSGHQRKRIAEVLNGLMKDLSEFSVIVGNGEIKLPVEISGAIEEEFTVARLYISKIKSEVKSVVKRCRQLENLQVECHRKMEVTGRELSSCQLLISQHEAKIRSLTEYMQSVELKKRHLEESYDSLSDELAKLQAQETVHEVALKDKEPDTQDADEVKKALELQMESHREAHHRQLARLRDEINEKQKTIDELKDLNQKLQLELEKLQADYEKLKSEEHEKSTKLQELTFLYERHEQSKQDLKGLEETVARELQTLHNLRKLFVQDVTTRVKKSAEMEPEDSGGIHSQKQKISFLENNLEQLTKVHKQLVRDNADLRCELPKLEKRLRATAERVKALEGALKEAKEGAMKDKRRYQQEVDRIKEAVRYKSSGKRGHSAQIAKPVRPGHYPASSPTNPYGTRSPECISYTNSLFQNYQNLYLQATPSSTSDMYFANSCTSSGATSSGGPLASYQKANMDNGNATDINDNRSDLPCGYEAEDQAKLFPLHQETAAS

[2] = molecular target: T1, Full-length human KIF5A heavy chain …; experiment: cross-linking; BS3 cross-linking with mass spectrometry (XL-MS); 2 µM KIF5A in low salt buffer (150 mM KCl, 10 mM MOPS pH 7.2, 2 mM MgCl2, 1 mM EGTA, 1 mM ATP), 25 °C, 30 min, quenched with Tris-HCl pH 8; trypsin digest, LC-MS/MS; both purified; conditions: remark: other sources report otherwise

binding [1]: binds | binding [2]: binds
B1: Full-length human KIF5A heavy chain (WT), C-terminal FLAG tag, Q12840 1-1032 (natural protein)
chain: T1 chain
